The text below walks through data of PubChem BioAssay AID1487 (National Center for Advancing Translational Sciences (NCATS), 2009).

Structures are written as SMILES. The list shows a part of the results. These are further read-outs of the screen, such as a control signal, another cell line or another target. No call is given for them. Compounds called inactive in the main read-out are mostly missing here. Words in brackets tell the shape of the fitted curve; partial curves, single points and poor fits give uncertain potencies.

The experiment in a line: qHTS Assay for Modulators of Lamin A Splicing. Particulars: HeLa LMNA splicing GFP/RFP minigene ratio, 48 h. The method in brief: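 S3 HeLa stable clones carrying a lamin A-EGFP splicing minigene plus DsRed2 were seeded at 600 cells/well in Opti-MEM with 2% FBS, pin-dosed and incubated 48 h at 37°C. Acumen cytometry (488 nm) gave the GFP/RFP total-intensity ratio.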
For orientation: Quantitative high-throughput screening tests each substance at several concentrations.

Setting [1] is: measured here: GFP splicing reporter channel.
Where [2] appears, read: measured here: RFP viability control channel.

A word on the AC50: it is the concentration at which the activity in the assay is half-maximal. In the case of `CCn1c(=O)cc(SCC(=O)N2CCN(C(=O)c3ccco3)CC2)c2ccccc21`, under setting [1], the AC50 was 10 µM [falling, partial curve, poor fit]. On to `COc1cc(C2C(C#N)=C(N)N(c3ccc(F)cc3)C3=C2S(=O)(=O)CC3)ccc1O` (stereo not drawn), for which the AC50 under setting [2] was 14.1 µM [rising, single point]. The same measure, in the same setting: the figure for `COc1ccc(-c2nc(N)n(C(=O)c3cccs3)n2)cc1` is 1.41 µM [falling, partial curve, poor fit]; for `Cc1csc(NC(=O)c2cc3c(s2)-c2ccccc2OC3)n1` it is 11.2 µM [rising, partial curve]; for `O=C(c1ccccc1)N1CCc2cc(CNS(=O)(=O)c3ccc(Cl)s3)ccc21` it is 3.98 µM [falling, partial curve]. As for `CCc1ccc(N(CC)C(=O)c2ccc3c(Cl)c4c(nc3c2)CCC4)cc1`, the AC50 under setting [1] is 12.6 µM [rising, single point] and the AC50 under setting [2] was 11.2 µM [rising, partial curve, poor fit]. In the case of `Cn1nc(C(F)(F)F)cc1-c1ccc(/C=C(\C#N)C(=O)c2cccc(C(F)(F)F)c2)s1`, the AC50 under setting [2] was 0.01 µM [falling, full curve, poor fit].

As for `CCOC(=O)C1CCN(c2ncnc3c2[nH]c2cccc(OC)c23)CC1`, under setting [1], the AC50 is 7.94 µM [rising, partial curve]. On to `CN(C)/C=C(\C=N\OCc1ccc(Cl)cc1Cl)C(=O)Nc1ccc(Cl)c(Cl)c1`, for which the AC50 under setting [2] is 31.6 µM [rising, single point]. The same measure, in the same setting: the figure for `CSc1ccc(/C=N/n2c(C)nnc2C)cc1` is 1.58 µM [rising, partial curve, poor fit]. As for `CCCOc1ccc(C(=O)NC(=S)Nc2nc(C)c(C(=O)N(C)C)s2)cc1`, the AC50 under setting [1] is 11.2 µM [rising, single point] and the AC50 under setting [2] is 17.8 µM [rising, single point]. Take `CN(C)/C=C/C(=O)c1ccc(Br)cc1`: the AC50 was 0.0282 µM [falling, full curve, poor fit] under setting [1] and 0.0178 µM [falling, full curve, poor fit] under setting [2]. In the case of `Oc1c(CN2CCOCC2)cc(COCc2ccccc2)c2cccnc12`, the AC50 under setting [2] was 6.31 µM [rising, partial curve]. In the case of `NC[C@@H]1O[C@@H](O[C@H]2[C@H](O)[C@H](O[C@@H]3O[C@H](CO)[C@@H](O)[C@H](N)[C@@H]3O)[C@@H](N)C[C@H]2N)[C@H](N)C[C@@H]1O`, under setting [1], the AC50 was 0.1 µM [falling, partial curve, poor fit]. For `Cc1ccc(NC(=O)COC(=O)c2cccc3c(=O)c(C)c(-c4ccccc4)oc23)cc1`, the AC50 is 11.2 µM [rising, partial curve] under setting [1] and 14.1 µM [rising, single point] under setting [2].

Regarding `C/C(=N\Nc1ccc(C(F)(F)F)cn1)c1ccc(S(=O)(=O)NCc2ccco2)cc1`, the AC50 by setting is: under setting [1], 5.62 µM [rising, partial curve]; under setting [2], 17.8 µM [rising, partial curve]. As for `CCOC(=O)N1CCC(n2c(SCC(=O)Nc3ccccc3OC)nc3ccccc3c2=O)CC1`, the AC50 was 11.2 µM [rising, partial curve, poor fit] under setting [1] and 22.4 µM [rising, partial curve] under setting [2]. With `O=C(CC1c2ccccc2Oc2ccccc21)NCc1ccco1`, the AC50 under setting [2] is 31.6 µM [rising, single point]. Consider `CCOC(=O)c1cnc2ccc(OCC)cc2c1NCc1ccccc1`, for which the AC50 was 14.1 µM [rising, single point] under setting [1] and 11.2 µM [rising, partial curve] under setting [2].

Regarding `COc1ccc(CN2CCN(C(c3ccc(F)cc3)c3ccc(F)cc3)CC2)c(OC)c1OC`, the AC50 under setting [2] was 10 µM [rising, partial curve, poor fit]. On the same count and under the same terms, the result for `O=S(=O)(Nc1ccc2c(c1)OCCO2)c1ccc(Br)s1` reads 35.5 µM [rising, single point]. Consider `CCOc1cc(N2CCOCC2)c(OCC)cc1NC(=O)CN1CCc2ccccc2C1`, for which the AC50 is 10 µM [rising, single point] under setting [1] and 11.2 µM [rising, single point] under setting [2].

Turning to `CC(C)c1ccc2oc(-c3cc(N)ccc3O)nc2c1`, the AC50 was 15.8 µM [rising, single point] under setting [1] and 17.8 µM [rising, partial curve] under setting [2].

Turning to `CCC(CO)NCC(O)COCc1ccc2c(c1)OCO2` (stereo not drawn), the AC50 under setting [1] is 7.94 µM [rising, partial curve, poor fit]. The same measure, in the same setting: the result for `CC(C)(C)C1CCc2[nH]c3ccccc3c(=O)c2C1` (stereo not drawn) reads 10 µM [rising, single point]; that for `O=C(Nc1ccccc1F)C1(c2ccccc2)CC1(Cl)Cl` (stereo not drawn), 4.47 µM [rising, partial curve].

Take `Cc1ccc(C(=O)N/N=C(/CC(=O)c2cccs2)C(F)(F)F)cc1`: the AC50 under setting [2] was 12.6 µM [rising, partial curve]. With `CCc1cccc(NC(=O)Cc2ccc(OC)c(OC)c2)c1`, the AC50 reads like this: under setting [1], 3.16 µM [rising, full curve, poor fit]; under setting [2], 5.01 µM [rising, full curve]. For `COc1cc(OC)cc(-c2nc3ccccc3c(=O)n2OC(=O)c2ccc(Br)cc2)c1`, the AC50 under setting [2] is 0.0891 µM [rising, partial curve, poor fit]. Take `COC(=O)CCCC1=CC2=C(c3ccccc3)C(=O)C(C)(OC(=O)C3CCCC3)C(=O)C2=CN1CCc1ccccn1` (stereo not drawn): the AC50 under setting [1] was 0.158 µM [falling, full curve, poor fit]. `O=C(c1ccccc1)N1CCN(Cc2c[nH]c3ccccc23)CC1`: the AC50 under setting [2] was 11.2 µM [rising, single point]. On the same count and under the same terms, the figure for `CCn1c2ccccc2c2cc(NC(=O)c3cccc([N+](=O)[O-])c3C)ccc21` is 14.1 µM [rising, single point]. The same measure, in the same setting: the figure for `CC(=O)/C(=N/Nc1cccc(C)c1)N1CCOCC1` is 35.5 µM [rising, single point]. On to `CCOC(=O)N1CCN(C(=O)CSc2ccc3nnc(-c4cccnc4)n3n2)CC1`, for which, under setting [2], the concentration at half-maximal activity (AC50) is 0.0447 µM [rising, full curve]. `O=C(c1ccc2c(c1)OCO2)C1CCCN(Cc2cc(F)ccc2-n2cccn2)C1` (stereo not drawn): the AC50 under setting [1] was 17.8 µM [falling, partial curve]. Take `O=Nc1c(O)n(Cc2c(Cl)cccc2Cl)c2ccccc12`: the AC50 under setting [1] is 12.6 µM [rising, single point] and the AC50 under setting [2] was 20 µM [rising, single point]. In the case of `CCCSC1=N/C(=C\C=C\c2ccco2)C(=O)S1`, the AC50 was 0.562 µM [falling, single point] under setting [1] and 0.501 µM [falling, partial curve, poor fit] under setting [2]. Regarding `Cc1ccc(NS(=O)(=O)c2ccc(Cl)s2)cc1S(=O)(=O)N(C)C`, the AC50 is, setting by setting: under setting [1], 12.6 µM [rising, partial curve, poor fit]; under setting [2], 15.8 µM [rising, partial curve]. Turning to `CCOc1ccccc1NC(=O)C1=C(C)NC(=O)NC1c1cccs1` (stereo not drawn), the AC50 under setting [2] was 22.4 µM [falling, single point]. Still for that read-out and setting: the result for `Cc1cccc(NCc2ccccc2OCc2ccccc2F)c1` reads 31.6 µM [rising, single point]. For the compound `COc1ccc(C(NC(C)=O)c2ccc3cccnc3c2O)c(OC)c1` (stereo not drawn), the AC50 under setting [1] is 7.08 µM [rising, partial curve] and the AC50 under setting [2] is 7.94 µM [rising, partial curve]. For `CC1(C)CC(=O)NC=C(c2ccccc2)C1`, under setting [2], the AC50 is 14.1 µM [rising, single point]. Regarding `O=C(COC(=O)CCC(=O)c1ccc(F)cc1)Nc1ccc(F)cc1F`, the AC50 under setting [2] was 7.08 µM [rising, full curve]. Consider `O=C(C1COc2ccccc2O1)N1CCN(c2ccccc2Cl)CC1` (stereo not drawn), for which the AC50 under setting [1] is 0.794 µM [rising, full curve, poor fit]. `CN(Cc1ccccc1)c1ncnc(N)c1[N+](=O)[O-]`: the AC50 under setting [2] was 28.2 µM [falling, partial curve].

As to `O=C(Nc1nccs1)c1ccc(Cl)c(S(=O)(=O)N2CCOCC2)c1`, the AC50 under setting [1] was 35.5 µM [rising, single point] and the AC50 under setting [2] was 31.6 µM [rising, single point]. As to `CCc1c(C)nc2ncnn2c1N1CCC(C(=O)NCc2cccc(OC)c2)CC1`, the AC50 under setting [2] was 15.8 µM [rising, single point]. Same read-out and setting: the result for `Cc1ccc(S(=O)(=O)N2CCCc3cc(NS(=O)(=O)c4ccc(F)cc4)ccc32)cc1` reads 25.1 µM [rising, partial curve, poor fit]. In the case of `CCCOc1ccc(/C(CC)=N/NC(=O)C2(C)CC2(Br)Br)cc1` (stereo not drawn), the AC50 runs as follows: under setting [1], 17.8 µM [rising, partial curve]; under setting [2], 6.31 µM [rising, partial curve]. For the compound `CCC(=O)C1=C(c2ccccc2)N(C(=O)CC)n2c(nnc2-c2ccccc2)S1`, the AC50 under setting [2] was 7.08 µM [rising, partial curve, poor fit].

Consider `CN=C(Nc1ccc(Br)cc1)SC1CC(=O)N(c2ccc(OC)cc2)C1=O` (stereo not drawn), for which the AC50 reads like this: under setting [1], 25.1 µM [rising, single point]; under setting [2], 25.1 µM [rising, single point]. Consider `Cc1ccc(C)c2c1cc(C)c1nnc(SCC(=O)Nc3nc4c(s3)CCCC4)n12`, for which, under setting [2], the AC50 was 20 µM [rising, partial curve]. Still for that read-out and setting: the figure for `Cc1cccc2cc(CN(Cc3ccco3)C(c3nnnn3CCc3ccccc3)C(C)C)c(=O)[nH]c12` (stereo not drawn) is 6.31 µM [rising, partial curve]; for `COc1ccc(NC(=O)CSc2nnc(-c3ccccc3C)n2N)cc1` it is 2.51 µM [falling, partial curve, poor fit]. Still for that read-out and setting: the result for `C/C(N)=C(/C#N)C(=O)CSc1nc2cc(Cl)ccc2s1` reads 12.6 µM [rising, single point]; that for `CC(=O)Nc1ccccc1C(=O)C(=O)Nc1ccc(C)c(F)c1`, 35.5 µM [rising, single point].
